Data published in publication PMC11253611, “The chaperone PrsA2 regulates the secretion, stability, and folding of listeriolysin O during Listeria monocytogenes infection” (mBio, 2024).
These are yes or no findings as the source states them, for the method shown. Some binding calls cover weakened binding; strength is not graded here.

By UniProt entry, the sequences of proteins in these tests, tags left out. Residues count along the entry.
UniProt P13128, residues 25-529: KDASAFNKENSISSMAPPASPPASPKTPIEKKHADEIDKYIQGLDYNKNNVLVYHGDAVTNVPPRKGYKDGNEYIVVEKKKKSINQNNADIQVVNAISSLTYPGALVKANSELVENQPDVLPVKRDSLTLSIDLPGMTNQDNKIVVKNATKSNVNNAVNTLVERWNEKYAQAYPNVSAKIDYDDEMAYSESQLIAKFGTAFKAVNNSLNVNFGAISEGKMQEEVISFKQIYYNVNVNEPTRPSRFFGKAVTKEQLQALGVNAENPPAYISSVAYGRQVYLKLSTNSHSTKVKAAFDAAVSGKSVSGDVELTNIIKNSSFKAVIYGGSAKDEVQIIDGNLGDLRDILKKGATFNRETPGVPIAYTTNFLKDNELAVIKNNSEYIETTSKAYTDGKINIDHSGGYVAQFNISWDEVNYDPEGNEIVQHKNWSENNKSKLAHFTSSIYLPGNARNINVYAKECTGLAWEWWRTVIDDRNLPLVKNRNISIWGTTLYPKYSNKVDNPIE

Molecular target: recombinant listeriolysin O (without the signal sequence, 25-529) (Listeria monocytogenes 10403S) (UniProt P13128)
Assay: dynamic light scattering; recombinant LLO at pH 5.5 and pH 6.5, 37°C, over 15 min; both purified

recombinant listeriolysin O (without the signal sequence, 25-529) (from UniProt P13128 25-529)
binding: binds
